US20110045003A1 (SYNOVEX, published 2011)
Results are given in words; binding and its absence hold for the method and conditions named. Some entries that bind do so weakly or less than the wild type.

Assays:
[1] = target: humanized anti-Cad-11 EC1 antibody SDP051 (Vκ1/VH5); assay: peptide competition, flow cytometry; peptide titrated against 0.5 µg/ml SDP051 on Cad-11 expressing 431D cells
[2] = target: humanized anti-Cad-11 EC1 antibody SDP051 (Vκ1/VH5); assay: flow cytometry competition: peptide titrated with SDP051 at 0.5 ug/ml on Cad-11 expressing 431D cells; MFI = SDP051 bound to cell Cad-11

- binding [1]: binds
- binding [2]: binds
Binder: GWVWNQFFVIEEYTGPDPVLVGRLHSDIDSGDGNIKY (peptide, UniProt P55287 54-90, looked up, linked to BSA) [BSA coupled 37-mer Cad-11 peptide encompassing the Cad-11 immunogen]
